Laboratory results published in patent publication US5468734A, “Prophylactic and remedial preparation for diseases attendant on hyperglycemia, and wholesome food” (Godo Shusei Co., Ltd., priority 1992, dated 1995).
Read-outs that look alike come from different tables or passages of the source.

Type: in vivo, ICR male mice
Text: (Action to depress increase in body weight of mice)
ICR male mice after the elapse of 5 weeks from their birth were used in proportions of 10 mice per group.
Mice of a control group were caused to freely ingest the same feed as those used in the run groups except that L-arabinose was not added.
The mice of each group were separately weighed after 10 days, 20 days, 30 days and 60 days from the beginning of the ingestion to determine their weight increases from the initial weights, thereby calculating an average value of the weights increased in each group. The amounts of the feeds and water ingested were also determined.

[1] = 0.5% in feed (Group 1 / A1), after 10 days
[2] = 0.5% in feed (Group 1 / A1), after 20 days
[3] = 0.5% in feed (Group 1 / A1), after 30 days
[4] = 0.5% in feed (Group 1 / A1), after 60 days
[5] = 1.0% in feed (Group 2 / A2), after 10 days
[6] = 1.0% in feed (Group 2 / A2), after 20 days
[7] = 1.0% in feed (Group 2 / A2), after 30 days
[8] = 1.0% in feed (Group 2 / A2), after 60 days
[9] = 2.0% in feed (Group 3 / A3), after 10 days
[10] = 2.0% in feed (Group 3 / A3), after 20 days
[11] = 2.0% in feed (Group 3 / A3), after 30 days
[12] = 2.0% in feed (Group 3 / A3), after 60 days

Structure (SMILES): O=C[C@H](O)[C@@H](O)[C@@H](O)CO [L-Arabinose, L-arabinose]
- Amount of feed ingested [1]: 2.9 g/day
- Amount of water ingested [1]: 2.1 g/day
- Amount of feed ingested [2]: 3.1 g/day
- Amount of water ingested [2]: 2.7 g/day
- Amount of feed ingested [3]: 3.4 g/day
- Amount of water ingested [3]: 2.8 g/day
- Amount of feed ingested [4]: 3.9 g/day
- Amount of water ingested [4]: 3.1 g/day
- Amount of feed ingested [5]: 2.8 g/day
- Amount of water ingested [5]: 2.3 g/day
- Amount of feed ingested [6]: 3.1 g/day
- Amount of water ingested [6]: 2.8 g/day
- Amount of feed ingested [7]: 3.4 g/day
- Amount of water ingested [7]: 3.0 g/day
- Amount of feed ingested [8]: 3.8 g/day
- Amount of water ingested [8]: 3.2 g/day
- Amount of feed ingested [9]: 2.7 g/day
- Amount of water ingested [9]: 2.3 g/day
- Amount of feed ingested [10]: 3.1 g/day
- Amount of water ingested [10]: 2.9 g/day
- Amount of feed ingested [11]: 3.3 g/day
- Amount of water ingested [11]: 3.1 g/day
- Amount of feed ingested [12]: 3.7 g/day
- Amount of water ingested [12]: 3.3 g/day
